# Measured values from the supplement of paper PMC3334620.
# In all, about 33,000 sequences were measured (“E-score (-0.5 to 0.5)”: median about -0.0059, highest 2% from about 0.26 on). This is one part of the list.
# Target: T1, Cin5 (UniProt P40917)
# T1 sequence: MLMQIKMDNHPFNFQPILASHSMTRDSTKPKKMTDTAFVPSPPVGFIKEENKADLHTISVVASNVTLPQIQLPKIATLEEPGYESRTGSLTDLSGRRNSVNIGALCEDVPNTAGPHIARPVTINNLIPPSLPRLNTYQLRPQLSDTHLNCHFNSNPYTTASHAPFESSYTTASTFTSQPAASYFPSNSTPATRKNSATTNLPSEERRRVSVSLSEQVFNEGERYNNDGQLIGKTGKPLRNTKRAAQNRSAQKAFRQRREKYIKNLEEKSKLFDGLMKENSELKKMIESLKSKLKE
# Assay: PBM E-score (8-mer binding enrichment) (E-score (-0.5 to 0.5)); higher = stronger / more preferred TF binding
# Conditions: protein concentration: 100 nM; construct: GST-full length
# Procedure: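 Universal 'all 10-mer' protein binding microarrays (Agilent AMADID 015681) probed with GST-tagged S. cerevisiae TFs (full-length or DBD) made by in vitro transcription/translation (PURExpress), about 100-200 nM. Bound TF was detected with fluorescent anti-GST. Each ungapped 8-mer (which stands for itself and its reverse complement) is scored by the PBM enrichment score (E-score), a modified Wilcoxon-Mann-Whitney statistic from -0.5 to +0.5, computed with the Universal PBM Analysis Suite. Scale: above 0.35 generally sequence-specific binding.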
row,Sequence,PBM E-score
1,CTGTACAC,-0.0408
2,ACGTTCAC,0.0656
3,CGGAAATC,0.137
4,CTCGACGC,0.0204
5,TAAGATTA,0.274
6,CCAGATGG,-0.193
7,CCATCTAC,0.0768
8,CGCAAAGA,0.143
9,ATTAATGC,0.19
10,ACCCGCTC,-0.209
11,GAATGCAC,0.0534
12,CACAAGAG,-0.00984
13,ATGGATCG,0.0514
14,GCTGCTCA,-0.141
15,AGAACTAC,0.0709
16,CACCGCTG,-0.298
17,GAAGCCAA,-0.0726
18,CAGCATGC,-0.0241
19,ATGGCTCG,0.0101
20,CGACAAGA,0.106
21,ATCCTTCC,-0.2
22,CTCACTCA,0.0762
23,TGCGCGCA,0.14
24,ATAGGGAA,-0.0953
25,GGCACTCA,-0.309

row,Sequence,PBM E-score
1,AAGTGGGT,0.0634
2,AAGCGCGT,-0.0236
3,ACATTCGC,0.0422
4,AAGAGTAG,-0.0354
5,ACCAACGT,0.0694
6,CGTGAAGC,-0.158
7,TGAGGAAA,-0.0184
8,ACGGCTAC,-0.0179
9,CCGGACCC,-0.179
10,CAGTTAAG,0.156
11,AAGGACGC,-0.0754
12,ATGAAAAA,0.252
13,ACCGGTCT,-0.26
14,AGTTTCAG,-0.0868
15,GACAACGA,0.0629
16,ATCAATAC,0.121
17,GAGATGCC,-0.00921
18,CCCTTATC,-0.0375
19,TAGGTCGA,-0.065
20,CTGTGAAC,-0.0835
21,CTTTAGCC,0.0446
22,GGCCCCTA,-0.237
23,ATAGTGGA,0.145
24,CATCGTGA,-0.166
25,CGTTCGTC,0.0235

row,Sequence,PBM E-score
1,ATACAACA,0.272
2,GTAGGCTA,-0.196
3,AGAGCTCC,-0.315
4,ACAAACGG,0.105
5,ACTCACTA,0.169
6,ATCGGCAG,-0.109
7,GTAGATCA,0.108
8,GAGATAAC,0.0518
9,GTAAGTAA,0.24
10,CGAGTAGC,-0.0354
11,ATACAGAC,0.0865
12,ATAGAGAC,-0.0684
13,CTTATTCC,0.117
14,AGCTTCAC,-0.101
15,CGGCGACC,-0.112
16,TACCTGGA,0.0158
17,AAAAGATC,-0.00227
18,TGAAGTAA,0.158
19,ACTTAACC,0.0892
20,GAGCTCCC,-0.17
21,ATCAGGAG,-0.00213
22,AGCGCCAC,-0.0305
23,ACGCGCTC,-0.0527
24,CACCATGG,-0.229
25,GTAATCTA,0.354

# A section from further up, as a working copy:
row,Sequence,PBM E-score
2,GTAGGCTA,-0.196
3,AGAGCTCC,-0.315
4,ACAAACGG,0.105
5,ACTCACTA,0.169
6,ATCGGCAG,-0.109
7,GTAGATCA,0.108

# Following part

row,Sequence,PBM E-score
1,ATCTACAA,0.00821
2,ACATGCGC,0.0846
3,AAGGGGAC,-0.178
4,TGCTATAA,0.0502
5,AATAAATT,0.19
6,AAGTGGAC,-0.0963
7,ATAGTGAG,0.0474
8,CACATGCA,-0.0466
9,CCCTGTCG,-0.196
10,ATCAGGTA,0.0912
11,AGCCTAAA,-0.0722
12,GCTATACC,0.0123
13,AGCACCTG,-0.215
14,CGCTCACC,-0.0238
15,ACCTGCCC,-0.155
16,AATGCCAA,0.0585
17,AAACAAGC,0.0602
18,AACGGTCC,-0.219
19,GTTACGGA,-0.122
20,TACTCGCA,0.182
21,AAGCTACC,0.106
22,ACACTCAA,0.178
23,GGCCCGAC,-0.256
24,AACTCTTA,0.0306
25,CGCACCGC,-0.189

row,Sequence,PBM E-score
1,ATCGAGGA,0.0713
2,ATGTATTA,0.233
3,GACATCGA,-0.221
4,ACTCTCTG,0.0311
5,ATTTGTTC,0.307
6,CGCACGCC,-0.0827
7,GGTCGTAA,-0.00186
8,AAGGTGCG,-0.159
9,GCTGTACC,-0.0973
10,CCGGGACA,-0.059
11,AGGATTAG,0.0904
12,AAAGCAGT,0.177
13,GAGACAAC,0.136
14,ACTCAGAA,0.105
15,AGGTTAAT,-0.0001
16,CAGACCTG,-0.0611
17,AACGAGGG,-0.149
18,CTTATCTC,0.0536
19,GAGTGTCC,0.0618
20,AATAACCT,0.061
21,AGGCATAC,0.0609
22,ACATTCAA,0.0897
23,CGGAATGC,0.19
24,ACGTCACG,0.0314
25,AATGGCCC,-0.253

row,Sequence,PBM E-score
1,AGCTTACC,0.226
2,CCATCATA,0.05
3,GAGGTGAC,0.0854
4,GCTGAAAA,0.0942
5,AACACCAC,0.033
6,AGTAGTCA,0.0207
7,CGGATCCA,0.165
8,GAAGGCTA,-0.0461
9,CTATGAAC,-0.0501
10,CTCTTTTC,0.023
11,CTGAGAAA,-0.00015
12,GACGTGTA,-0.148
13,AACACGAA,0.191
14,AAGATGCG,0.106
15,CTCCCGGA,-0.0612
16,AGGTTTAC,-0.0651
17,AGAGGACT,-0.247
18,GGGTATCA,-0.0392
19,ATCCGATA,0.0454
20,AAGTACAA,0.217
21,CACGACAA,-0.00342
22,CTCCCCTC,-0.0793
23,TCGATCCA,-0.0512
24,ATGCGCGA,-0.094
25,ATCACAAG,0.0853

row,Sequence,PBM E-score
1,ACTGGAGA,-0.0664
2,ATGCTTGA,0.133
3,ATCAGCAA,0.0322
4,AAAGACCC,-0.155
5,TAATTAGA,0.146
6,AATGCCGG,-0.012
7,ACACGTTC,-0.0241
8,TGACATCA,0.356
9,AGCCATTA,0.119
10,ACCATCGA,0.0206
11,GTCAGCAA,0.267
12,AAGAAACC,0.138
13,TAAGCGAA,0.275
14,AATCTTGC,0.0822
15,ACATTTGA,0.144
16,ACGGCCGG,-0.108
17,CATAGGCC,-0.0986
18,GTTGCAAC,0.0287
19,CTACATAA,0.0697
20,CTAAAGTC,-0.259
21,TATAACCA,0.189
22,ACTATTAC,0.224
